PubChem BioAssay AID686938, Drosophila RNAi Screening Center | 2013

Test: 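Fly genes required for calcium entry once internal stores are emptied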 (primary screen)
Cell system: Drosophila S2R+ cells
Reagent: long dsRNA against Drosophila genes, about 0.25 µg dsRNA per well, roughly 10,000 cells
Timing: 5 days of knock-down before the calcium assay
Conditions: thapsigargin (SERCA pump blocker) to empty calcium stores; entry signal taken 4 min after adding it
Measurement: 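Per-well fluo-4 fluorescence in two replicates, unnormalised, measured in resting cells and 4 min after store depletion by the SERCA blocker thapsigargin; ratio of the two present in few wells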
Direction: calcium entry signal: higher = stronger calcium signal after store depletion; entry to resting ratio: higher = more calcium entry relative to resting level; resting calcium signal: higher = higher resting calcium signal
Rule for the call: 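Hit if the duplicate-averaged plate z-score for entry over resting signal is under −3; wells with weak total dye signal (Fmax z < −2) or more than 5 off-targets removed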
Meaning of the calls: active = strongly reduced calcium entry; inactive = no strong reduction
The screen tested about 23,000 reagents; this is an unselected part of those that have a named target and a result. Of all reagents, 75 (0.33%) were called active. 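Raw plate signals without normalisation; calls rest on plate z-scores that were not deposited; ratio present for only 364 wells.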 The record does not give: the dose of the treatment.

With knock-down of CG9951 [DRSC11105] the results were calcium entry signal, replicate 1 (fluorescence units) = 2.19e7; calcium entry signal, replicate 2 (fluorescence units) = 2.93e7; resting calcium signal, replicate 1 (fluorescence units) = 1.05e7; resting calcium signal, replicate 2 (fluorescence units) = 2.28e7; inactive.
With knock-down of CG2698 [DRSC15447], the record shows calcium entry signal, replicate 1 (fluorescence units) = 4.99e7; calcium entry signal, replicate 2 (fluorescence units) = 5.15e7; resting calcium signal, replicate 1 (fluorescence units) = 2.41e7; resting calcium signal, replicate 2 (fluorescence units) = 2.41e7; inactive.
Against px [DRSC04708], the entry reads calcium entry signal, replicate 1 (fluorescence units) = 3.70e7; resting calcium signal, replicate 1 (fluorescence units) = 2.01e7; inactive.
Knock-down of px [DRSC23244] came out at: calcium entry signal, replicate 1 (fluorescence units) = 4.10e7; calcium entry signal, replicate 2 (fluorescence units) = 2.98e7; resting calcium signal, replicate 1 (fluorescence units) = 2.32e7; resting calcium signal, replicate 2 (fluorescence units) = 1.42e7; inactive.
Knock-down of CG8249 [DRSC07125] came out at: calcium entry signal, replicate 1 (fluorescence units) = 3.08e7; calcium entry signal, replicate 2 (fluorescence units) = 3.30e7; resting calcium signal, replicate 1 (fluorescence units) = 1.41e7; resting calcium signal, replicate 2 (fluorescence units) = 1.60e7; inactive.

As entered above:
Entry for CG9951 [DRSC11105] under “calcium entry signal, replicate 2 (fluorescence units)”: 2.93e7
Result of px [DRSC04708] under “resting calcium signal, replicate 1 (fluorescence units)”: 2.01e7

More reagents:
Against CG9691 [DRSC18441] the deposit lists calcium entry signal, replicate 1 (fluorescence units) = 3.87e7; calcium entry signal, replicate 2 (fluorescence units) = 6.35e7; resting calcium signal, replicate 1 (fluorescence units) = 1.93e7; resting calcium signal, replicate 2 (fluorescence units) = 2.84e7; inactive.
For CTCF [DRSC11004], the entry reads calcium entry signal, replicate 1 (fluorescence units) = 4.62e7; calcium entry signal, replicate 2 (fluorescence units) = 3.36e7; resting calcium signal, replicate 1 (fluorescence units) = 3.26e7; resting calcium signal, replicate 2 (fluorescence units) = 1.48e7; inactive.
After knock-down of CG13843 [DRSC14693] the results were calcium entry signal, replicate 1 (fluorescence units) = 4.13e7; calcium entry signal, replicate 2 (fluorescence units) = 3.15e7; resting calcium signal, replicate 1 (fluorescence units) = 1.89e7; resting calcium signal, replicate 2 (fluorescence units) = 1.35e7; inactive.
For rod [DRSC17047] the deposit lists calcium entry signal, replicate 1 (fluorescence units) = 2.00e7; calcium entry signal, replicate 2 (fluorescence units) = 3.02e7; entry to resting ratio 1.9; resting calcium signal, replicate 1 (fluorescence units) = 1.05e7; resting calcium signal, replicate 2 (fluorescence units) = 1.36e7; inactive.
Depletion of CG30398 [DRSC03891] resulted in: calcium entry signal, replicate 1 (fluorescence units) = 2.23e7; calcium entry signal, replicate 2 (fluorescence units) = 3.86e7; resting calcium signal, replicate 1 (fluorescence units) = 1.03e7; resting calcium signal, replicate 2 (fluorescence units) = 1.72e7; inactive.
RhoGAP1A [DRSC20649] scored calcium entry signal, replicate 1 (fluorescence units) = 5.44e7; calcium entry signal, replicate 2 (fluorescence units) = 5.17e7; resting calcium signal, replicate 1 (fluorescence units) = 2.59e7; resting calcium signal, replicate 2 (fluorescence units) = 2.16e7; inactive.
With knock-down of RhoGAP1A [DRSC20651] the results were calcium entry signal, replicate 1 (fluorescence units) = 4.59e7; calcium entry signal, replicate 2 (fluorescence units) = 4.78e7; resting calcium signal, replicate 1 (fluorescence units) = 2.45e7; resting calcium signal, replicate 2 (fluorescence units) = 2.17e7; inactive.
After knock-down of CG1492 [DRSC19605] the results were calcium entry signal, replicate 1 (fluorescence units) = 4.27e7; calcium entry signal, replicate 2 (fluorescence units) = 4.81e7; resting calcium signal, replicate 1 (fluorescence units) = 2.06e7; resting calcium signal, replicate 2 (fluorescence units) = 2.27e7; inactive.
Knock-down of POLDIP2 [DRSC12194] gave: calcium entry signal, replicate 1 (fluorescence units) = 2.48e7; calcium entry signal, replicate 2 (fluorescence units) = 3.32e7; resting calcium signal, replicate 1 (fluorescence units) = 1.08e7; resting calcium signal, replicate 2 (fluorescence units) = 1.43e7; inactive.
